Screening data, single-dose tests

Amino acid sequences for entries named in this document (tags omitted). Residues count along the entry.
UniProt I6X8D2, whole entry: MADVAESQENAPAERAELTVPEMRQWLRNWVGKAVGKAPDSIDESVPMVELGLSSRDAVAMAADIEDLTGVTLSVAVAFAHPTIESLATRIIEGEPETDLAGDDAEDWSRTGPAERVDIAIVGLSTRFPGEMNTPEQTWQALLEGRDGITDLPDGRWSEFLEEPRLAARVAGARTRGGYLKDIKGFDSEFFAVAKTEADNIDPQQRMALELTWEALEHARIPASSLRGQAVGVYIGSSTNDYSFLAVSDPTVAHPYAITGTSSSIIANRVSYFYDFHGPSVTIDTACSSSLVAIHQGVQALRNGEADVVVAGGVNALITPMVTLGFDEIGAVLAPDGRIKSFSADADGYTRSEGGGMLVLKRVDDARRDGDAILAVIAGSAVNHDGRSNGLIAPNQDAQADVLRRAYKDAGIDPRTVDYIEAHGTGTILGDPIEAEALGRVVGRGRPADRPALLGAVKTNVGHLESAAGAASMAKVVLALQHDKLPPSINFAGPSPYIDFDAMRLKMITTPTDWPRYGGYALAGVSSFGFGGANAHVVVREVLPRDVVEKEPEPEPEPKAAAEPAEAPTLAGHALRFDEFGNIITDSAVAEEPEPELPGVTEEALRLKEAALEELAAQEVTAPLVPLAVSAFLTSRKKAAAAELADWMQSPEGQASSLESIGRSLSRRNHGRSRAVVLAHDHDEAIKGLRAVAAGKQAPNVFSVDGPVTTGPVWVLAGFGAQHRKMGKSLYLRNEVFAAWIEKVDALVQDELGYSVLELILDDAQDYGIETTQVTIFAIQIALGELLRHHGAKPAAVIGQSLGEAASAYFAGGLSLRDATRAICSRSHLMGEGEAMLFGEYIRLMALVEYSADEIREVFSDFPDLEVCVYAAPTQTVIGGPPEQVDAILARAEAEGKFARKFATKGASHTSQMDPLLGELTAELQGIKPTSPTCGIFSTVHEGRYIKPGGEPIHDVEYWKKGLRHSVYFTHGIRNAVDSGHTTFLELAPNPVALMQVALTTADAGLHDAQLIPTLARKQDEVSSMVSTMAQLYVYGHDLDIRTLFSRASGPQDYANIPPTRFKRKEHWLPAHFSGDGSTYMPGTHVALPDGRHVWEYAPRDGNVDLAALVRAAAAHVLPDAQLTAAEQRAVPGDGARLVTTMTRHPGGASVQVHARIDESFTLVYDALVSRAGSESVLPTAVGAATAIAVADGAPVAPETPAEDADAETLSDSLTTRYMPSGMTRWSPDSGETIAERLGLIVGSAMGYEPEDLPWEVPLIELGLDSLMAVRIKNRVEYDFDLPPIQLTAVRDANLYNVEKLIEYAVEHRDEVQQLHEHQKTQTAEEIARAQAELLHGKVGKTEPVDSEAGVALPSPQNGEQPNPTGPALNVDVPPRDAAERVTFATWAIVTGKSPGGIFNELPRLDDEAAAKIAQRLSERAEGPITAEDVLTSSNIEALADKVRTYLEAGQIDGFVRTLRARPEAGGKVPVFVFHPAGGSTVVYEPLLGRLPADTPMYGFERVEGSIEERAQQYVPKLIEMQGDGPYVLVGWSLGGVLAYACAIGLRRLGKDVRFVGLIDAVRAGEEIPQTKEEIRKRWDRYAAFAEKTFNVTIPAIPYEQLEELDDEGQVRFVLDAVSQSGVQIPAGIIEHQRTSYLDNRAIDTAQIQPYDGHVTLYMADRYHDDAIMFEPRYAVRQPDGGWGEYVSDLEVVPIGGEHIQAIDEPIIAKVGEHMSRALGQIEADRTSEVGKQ
UniProt Q8IDJ8, 1-583: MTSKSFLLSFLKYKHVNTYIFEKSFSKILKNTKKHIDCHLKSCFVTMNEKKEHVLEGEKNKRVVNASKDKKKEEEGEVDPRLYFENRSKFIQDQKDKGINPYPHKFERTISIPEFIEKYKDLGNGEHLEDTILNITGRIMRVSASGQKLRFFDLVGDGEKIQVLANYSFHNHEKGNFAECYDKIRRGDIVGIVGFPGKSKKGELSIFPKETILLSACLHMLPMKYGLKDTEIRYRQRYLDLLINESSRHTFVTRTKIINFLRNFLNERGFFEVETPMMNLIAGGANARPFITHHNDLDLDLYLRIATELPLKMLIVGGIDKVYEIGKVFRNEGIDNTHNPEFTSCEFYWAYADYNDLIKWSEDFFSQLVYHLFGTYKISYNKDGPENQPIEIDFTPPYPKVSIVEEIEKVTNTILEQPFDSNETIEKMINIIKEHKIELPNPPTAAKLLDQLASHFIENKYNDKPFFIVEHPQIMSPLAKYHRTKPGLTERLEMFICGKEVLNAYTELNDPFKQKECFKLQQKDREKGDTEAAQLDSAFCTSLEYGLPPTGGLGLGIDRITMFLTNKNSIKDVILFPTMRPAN
UniProt A4I591, 1-473: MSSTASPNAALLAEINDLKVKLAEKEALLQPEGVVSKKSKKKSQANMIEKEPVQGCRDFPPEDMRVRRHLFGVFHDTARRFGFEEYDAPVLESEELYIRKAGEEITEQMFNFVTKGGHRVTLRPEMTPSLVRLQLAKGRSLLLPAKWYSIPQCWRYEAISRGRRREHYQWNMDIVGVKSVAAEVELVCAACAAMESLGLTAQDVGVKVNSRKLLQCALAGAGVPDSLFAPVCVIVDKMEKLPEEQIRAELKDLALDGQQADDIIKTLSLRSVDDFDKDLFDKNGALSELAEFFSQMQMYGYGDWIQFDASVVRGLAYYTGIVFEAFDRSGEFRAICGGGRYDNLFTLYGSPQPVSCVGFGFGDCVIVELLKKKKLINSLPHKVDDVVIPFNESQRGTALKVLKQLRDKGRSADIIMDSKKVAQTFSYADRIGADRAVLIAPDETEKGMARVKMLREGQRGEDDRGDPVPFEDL
UniProt P9WFT3, whole entry: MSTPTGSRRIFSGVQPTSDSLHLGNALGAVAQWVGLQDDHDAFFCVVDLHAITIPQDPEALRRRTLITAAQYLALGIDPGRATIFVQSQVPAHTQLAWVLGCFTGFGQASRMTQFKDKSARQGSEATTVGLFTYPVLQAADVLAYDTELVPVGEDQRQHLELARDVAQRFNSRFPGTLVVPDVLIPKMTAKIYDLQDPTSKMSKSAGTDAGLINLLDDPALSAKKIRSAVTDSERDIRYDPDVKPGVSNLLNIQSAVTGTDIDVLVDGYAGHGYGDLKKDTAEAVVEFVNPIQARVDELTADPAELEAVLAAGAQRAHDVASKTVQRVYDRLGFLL

Source: ChEMBL document CHEMBL3988442, “University of Dundee, Small-Polar-MMV Screening Library” (2021).

A: 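Enzyme assay of the thioesterase domain of polyketide synthase 13; the read-out is not stated. Target: Polyketide synthase Pks13, Mycobacterium tuberculosis (UniProt I6X8D2). Tested at 30 µM. The record gives no direction; the compounds picked for IC50 retests had high values, so higher reads as stronger inhibition. Size under these conditions: about 67,000 compounds, about 300 of them at 50% or above in at least one test.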
B: 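Lysine-tRNA ligase, Plasmodium falciparum 3D7 (UniProt Q8IDJ8). Enzyme assay of the cytosolic lysyl-tRNA synthetase in 384-well plates, read by luminescence. Concentration: 30 µM. Higher reads as stronger inhibition, judged from the few compounds that gave an IC50. Of about 69,000 compounds tested this way, about 49 (0.071%) reached 50% or more in at least one test.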
C: 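Histidine-tRNA ligase, Leishmania infantum (UniProt A4I591). Enzyme assay of histidyl-tRNA synthetase; the read-out is not stated. Concentration: 30 µM. The record gives no direction; compounds that gave an IC50 in retests scored well above the rest, so higher reads as stronger inhibition. The assay is labelled LdHisRS but filed under L. infantum. Size under these conditions: about 69,000 compounds, about 410 of them at 50% or above in at least one test.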
D: 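Enzyme assay of tryptophanyl-tRNA synthetase; the read-out is not stated. Target: Tryptophan-tRNA ligase, Mycobacterium tuberculosis (UniProt P9WFT3). Compounds at 10 µM. Direction is not recorded; retested compounds ran higher, which suggests that high means inhibition. Of about 65,000 compounds tested this way, about 64 (0.098%) reached 50% or more in at least one test.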

Each number is a percent effect as filed.
The controls that fix the scale are not given in the record; negative values are as filed.
Compounds were drawn at random from those tested, without regard to their results.

{"structure": "COc1ncccc1C(=O)Nc1nc2c(s1)CN(S(=O)(=O)C1CC1)CC2", "A": -8.708, "B": -1.611, "C": 15.38, "D": -2.78}
{"structure": "Cc1cccc(OCCCN2CCC(N(C)Cc3noc(C)n3)C2)c1", "stereo": "stereo not given", "A": -32.26, "B": -1.42, "C": 15.38, "D": 7.098}
{"structure": "CN1CCc2[nH]nc(C(=O)N3CCCC4(CN(C)C(=O)O4)C3)c2C1", "stereo": "stereo not given", "A": -22.98, "B": 3.331, "C": 15.38, "D": -5.121}
{"structure": "Cc1cc(OCc2ccc(C(=O)O)s2)ccc1Cl", "A": -2.63, "B": 0.2654, "C": -12.07, "D": -31.09}
{"structure": "Cc1ccc(C2CCCN(C(=O)c3cnn(C)c3)C2)nc1", "stereo": "stereo not given", "A": -15.24, "B": -1.117, "C": 5.208}
{"structure": "CCc1nnc(CN2CCCC(Cn3nc(C)nc3C)C2)o1", "stereo": "stereo not given", "A": -10.2, "B": 1.761, "C": 8.036, "D": 0.3621}
{"structure": "Cn1c(C(N)=O)ccc1-c1ccccc1", "A": 5.667, "B": 4.402, "C": 12.28, "D": -2.785}
{"structure": "Cn1cccc1CN1CCC2(CCCN(C(=O)Cc3cccnc3)C2)C1", "stereo": "stereo not given", "A": -16.73, "B": -4.375, "C": -2.913, "D": 6.064}
{"structure": "CC(C)N(C)C(=O)COc1ccc(-c2noc(C3CCCO3)n2)cc1", "stereo": "stereo not given", "A": -11.21, "B": 0.8521, "C": 16.81, "D": -5.322}
{"structure": "CN(CC(=O)NC(C)(C)C)C(=O)C1CC(c2cccc(F)c2)=NO1", "stereo": "stereo not given", "A": -31.23, "B": 1.449, "C": 11.39, "D": -3.525}
{"structure": "FC(F)(F)C1CN(Cc2cccc(-c3ccccn3)c2)CCO1", "stereo": "stereo not given", "A": 6.928, "B": 11.64, "C": 19.57, "D": 5.949}
{"structure": "COCC(=O)NCc1cc(=O)n2c(n1)CN(Cc1ccsc1)CCC2", "A": -18.14, "B": -3.318, "C": 4.511, "D": 1.831}
{"structure": "Cc1ccc2nc(C3CCCN3C(=O)c3cc(=O)[nH]c(=O)[nH]3)[nH]c2c1", "stereo": "stereo not given", "A": -22.33, "B": -1.193, "C": -3.704, "D": 1.91}
{"structure": "COc1c(C2CCCN2C(=O)c2cnccn2)c(C)nn1C", "stereo": "stereo not given", "A": -26.76, "B": 0.1626, "C": 11.5, "D": 24.83}
{"structure": "Cn1ccc(CN2CCC(CC(=O)N3CCCC3)CC2)cc1=O", "A": -10.73, "B": 1.407, "C": 20.51, "D": -2.101}
{"structure": "CC(C)(C)C(=O)NCCNc1cc(N2CCCC2)ncn1", "A": -14.73, "B": 1.697, "C": -5.128, "D": -1.342}
{"structure": "COc1cccc(-n2nnc(C(=O)N3CCOC(C)C3)c2C)c1", "stereo": "stereo not given", "A": -12.53, "B": 0.6358, "C": 12.04, "D": -4.679}
{"structure": "COc1ccc(Br)cc1CCC(=O)N1CCCC(O)C1", "stereo": "stereo not given", "A": 21.47, "B": -2.508, "C": 1.408, "D": 0.4914}
{"structure": "CC1CCN(C(=O)NCC(=O)N(C)CC(F)(F)F)C1", "stereo": "stereo not given", "A": -5.315, "B": -0.4258, "C": 0, "D": -3.744}
{"structure": "CS(=O)(=O)N1CCN(CC2CC2)c2ncccc2C1", "B": 0.1052, "C": 10.26, "D": -2.616}
{"structure": "O=S(=O)(C1CC1)N1CCc2ncnc(N3CCOCC3)c2CC1", "A": -3.203, "B": 2.507, "C": 7.921}
{"structure": "COCC(=O)N1CCC2(CC1)COc1ccccc1S(=O)(=O)N(C)C2", "A": -14.98, "B": 1.736, "C": 16.67, "D": -2.813}
{"structure": "Cc1noc(CCCC(=O)NCC2CCS(=O)(=O)C2)n1", "stereo": "stereo not given", "A": -17.58, "B": -0.05624, "C": 12.5, "D": 24.79}
{"structure": "Cc1ccc(S(C)(=O)=O)cc1C(=O)NS(C)(=O)=O", "A": -1.481, "B": 3.658, "C": 5.479, "D": -2.341}
{"structure": "CC(c1nccs1)N(C)Cc1ccc(CCC(C)(C)O)cc1", "stereo": "stereo not given", "A": 9.475, "B": 4.561, "C": 4, "D": -9.814}
{"structure": "COCCNC(=O)CCN1C(=O)CC2(CCCC2)C1=O", "A": 2.367, "B": 4.957, "C": 15, "D": 1.356}
{"structure": "Cc1cc(CN2C[C@@H](C)[C@@]3(CCN(C)C3=O)C2)oc1C", "A": 10.08, "B": 3.431, "C": 8.621, "D": -3.344}
{"structure": "CC(Cn1ccnc1)NS(=O)(=O)c1ccc(C#N)c(Cl)c1", "stereo": "stereo not given", "A": 4.965, "B": 8.065, "C": 11.4, "D": 2.386}

Some entries from above, unchanged:

{"structure": "COCC(=O)N1CCC2(CC1)COc1ccccc1S(=O)(=O)N(C)C2", "A": -14.98, "B": 1.736, "C": 16.67, "D": -2.813}
{"structure": "CN(CC(=O)NC(C)(C)C)C(=O)C1CC(c2cccc(F)c2)=NO1", "stereo": "stereo not given", "A": -31.23, "B": 1.449, "C": 11.39, "D": -3.525}